Reference: paper PMC10359635
Construct, isoform or probe ends are uncertain for at least one entry. Negatives hold for the conditions tested.

The chains behind the UniProt entries cited, without tags or fusion partners. Where a name states a change or a piece, a line headed by the entry shows the natural chain unless it says otherwise.
UniProt P0A6Y8: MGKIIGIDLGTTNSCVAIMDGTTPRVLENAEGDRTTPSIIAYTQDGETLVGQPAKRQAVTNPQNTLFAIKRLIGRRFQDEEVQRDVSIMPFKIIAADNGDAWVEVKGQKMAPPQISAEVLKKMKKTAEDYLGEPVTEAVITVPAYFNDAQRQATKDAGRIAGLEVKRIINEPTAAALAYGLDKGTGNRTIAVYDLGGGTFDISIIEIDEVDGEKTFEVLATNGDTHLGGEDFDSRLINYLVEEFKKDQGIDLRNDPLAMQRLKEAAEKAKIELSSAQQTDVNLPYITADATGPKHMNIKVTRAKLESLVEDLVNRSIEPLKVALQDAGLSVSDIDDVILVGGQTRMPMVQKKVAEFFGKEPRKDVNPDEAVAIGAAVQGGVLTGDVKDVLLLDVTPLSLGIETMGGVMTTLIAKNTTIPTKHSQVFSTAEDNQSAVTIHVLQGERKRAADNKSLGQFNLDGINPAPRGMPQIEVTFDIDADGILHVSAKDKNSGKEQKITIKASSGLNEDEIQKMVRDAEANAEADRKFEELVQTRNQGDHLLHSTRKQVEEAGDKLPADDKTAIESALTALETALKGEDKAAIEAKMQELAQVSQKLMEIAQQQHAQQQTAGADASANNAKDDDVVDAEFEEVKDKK

Molecular target: DnaK (Escherichia coli (K-12 MG1655)) (UniProt P0A6Y8)
Test: EMSA
Details: mixed with fork; EMSA: 20 nM Cy5 fork, 20 mM Tris pH 8.0, 0.1 mg/ml BSA, 7% glycerol (25% after DnaK addition); proteins diluted in 20 mM Tris pH 8.0, 100 mM NaCl, 1 mM DTT; recombinant protein; protein details: N-terminal 6xHis; label: 5'-Cy5; single-stranded DNA

CAACGTCATAGACGATTACATTGCTACATGGAGCTGTCTAGAGGATCCGA [Cy5-ssDNA (MW14)]
binding result: no binding
